These results are taken from PMC7819943, “Rice protein-binding microarrays: a tool to detect cis-acting elements near promoter regions in rice”.

Sequences of proteins named here, by UniProt entry; tags and fusion partners are left off.
UniProt Q0JBA9, entry or part of it: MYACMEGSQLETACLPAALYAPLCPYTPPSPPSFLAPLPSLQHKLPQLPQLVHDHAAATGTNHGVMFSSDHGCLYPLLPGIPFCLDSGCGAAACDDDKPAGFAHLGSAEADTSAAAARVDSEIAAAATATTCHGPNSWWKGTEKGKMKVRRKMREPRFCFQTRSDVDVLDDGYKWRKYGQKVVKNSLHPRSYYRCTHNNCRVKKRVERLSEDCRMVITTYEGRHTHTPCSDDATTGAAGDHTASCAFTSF

This is one part of the list.

The target in the test is OsWRKY34 (Oryza sativa, UniProt Q0JBA9 1-250). Put plainly: protein-binding microarray (RPBM); PBS, 2% BSA, 51.3 ng/ul salmon testes DNA, 50 uM zinc acetate, 200 nM TF, 25 C, 1 h; high values mean tight binding. Particulars: protein: recombinant; tags: N-terminal polyhistidine and DsRed monomer fusion (pET32a); label: CyDye5-dUTP incorporated in the synthesized complementary strand; 3' TTTTT single-stranded linker to array surface; dsDNA, one strand shown. The procedure, abridged:
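Binding signal is defined as the fluorescence intensity of each feature in arbitrary units, read on an Axon 4000B scanner. Transcription factors with N-terminal polyhistidine and DsRed fusions came from E. coli BL21-CodonPlus and were purified on Ni–NTA. They were incubated at 200 nM for 1 h at 25 °C on a custom Agilent array that had been made double-stranded with Cy5-dUTP, with 50 µM zinc acetate present, and the array was washed.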
As to “TCGCGCCGTCTACTTGTGCTAGAATTCCGACTCCATCCGCCGGAGTCACCTAGTGCAG”, the binding signal was 11500 fluorescence intensity (a.u.). Under “TAGTGCTGGTTCTGATAACTTTTTGTCTGATGTCCCATCTCGGAGTCACCTAGTGCAG” stands 9940 fluorescence intensity (a.u.); under “ATCATCGATTGTTTTTTCCTTTCATTTTTAGCTGTGTAGTCGGAGTCACCTAGTGCAG”, 8080 fluorescence intensity (a.u.). In the case of “TTGTTGCTTGCTTCCCTACACTTCTCTCTCTCAGCTGCTACGGAGTCACCTAGTGCAG”, the binding signal was 9260 fluorescence intensity (a.u.).

As for “GCACTTCTCCACCTGTATCCAGTTCCAGTTATTGGCGATGCGGAGTCACCTAGTGCAG”, the binding signal was 8770 fluorescence intensity (a.u.). For “GTTGTTATATGCCTTGCAGTTTGTCCAATTGAATCAGAATCGGAGTCACCTAGTGCAG” the value was 8070 fluorescence intensity (a.u.). Under “ACCTGTGTAGTATTATCTATCCATTGTTGGTGTGTGTTTACGGAGTCACCTAGTGCAG” stands 9250 fluorescence intensity (a.u.).

For “AAGTAGGATCCATTCCTTCTCTCCATTCCCTATATCTTCACGGAGTCACCTAGTGCAG”, the binding signal was 9080 fluorescence intensity (a.u.). As for “AGGTTTTTCTAAAACCACAAATAAATTTAATTTTCTAATTCGGAGTCACCTAGTGCAG”, the binding signal is 10500 fluorescence intensity (a.u.). Under “AATGATTCTTGCCGGGGCGCCAGATGTCCCCAAACGTTCGCGGAGTCACCTAGTGCAG” stands 8760 fluorescence intensity (a.u.); under “TCATCATGCCATAACCAAACCTCATGTTTTTAGTGCACCACGGAGTCACCTAGTGCAG”, 8510 fluorescence intensity (a.u.). For “CTGTGAACCTGCTTGTGGCCCGCGGGTGGGGCGGTCGGGCCGGAGTCACCTAGTGCAG”, the binding signal was 10000 fluorescence intensity (a.u.). For “TACTCTTCCATCGAACTGTTGGATGTTTCTGTCTTGACTTCGGAGTCACCTAGTGCAG” the value was 9210 fluorescence intensity (a.u.); for “CGAAGATACCTCAACTTAACTTGTCATCGGGTTACAAAATCGGAGTCACCTAGTGCAG”, 8150 fluorescence intensity (a.u.). On to “TATGTCTTATTCACTCGGCTCTAGGCATCATTGGTATTCTCGGAGTCACCTAGTGCAG”, for which the binding signal was 9380 fluorescence intensity (a.u.). Under “CATCTATTTTTCCTCCCTATTTTTTGTGATGTGCCTTACACGGAGTCACCTAGTGCAG” stands 11600 fluorescence intensity (a.u.).

Turning to “GTAATCGCGTTCGTCATCATCTATCTCCTCCACCGCCTGACGGAGTCACCTAGTGCAG”, the binding signal is 10100 fluorescence intensity (a.u.).

For the sequence “CTGTATTTTTCCTATGTTTTGCAATCCTCTGGTTTACAATCGGAGTCACCTAGTGCAG”, the binding signal is 10400 fluorescence intensity (a.u.). For “AAAATCTCTCTCTCTCTCTCTCTCTCACACAGCCTCACAGCGGAGTCACCTAGTGCAG” the value was 8560 fluorescence intensity (a.u.); for “CTACCTTGCATCCGTCGCCTGCTCCGCCTCACCATGCCGACGGAGTCACCTAGTGCAG”, 8760 fluorescence intensity (a.u.).

Regarding “AATAGATAATGCCGTTGTCACATGTTTAACCATCCGTCTTCGGAGTCACCTAGTGCAG”, the binding signal is 9510 fluorescence intensity (a.u.). Regarding “TTTCAGCTTTTTCATCTTCACTCATCACTAATATATATATCGGAGTCACCTAGTGCAG”, the binding signal is 8420 fluorescence intensity (a.u.).

With “GGGTGGGGAAGAAGAGGGGAAGCGGGGAGGAGGAGAGGGACGGAGTCACCTAGTGCAG”, the binding signal was 9680 fluorescence intensity (a.u.). Turning to “CTTGCCGCTTCTCTCTTCTTCTTCTTCTTGCAGCGGCCGTCGGAGTCACCTAGTGCAG”, the binding signal is 8520 fluorescence intensity (a.u.).

For the sequence “TCCCGAGCAATTTCACCCTAGCCTAGCCGCCGCCTTTATACGGAGTCACCTAGTGCAG”, the binding signal was 11800 fluorescence intensity (a.u.).

Consider “GCTCGTGTTCTTTGCTTCTCCGATCGCCTCCGCGAGTAGGCGGAGTCACCTAGTGCAG”, for which the binding signal was 9200 fluorescence intensity (a.u.). For the sequence “CACTCCACTGACATTTCAGTAGTCCACTGCCGTTTTCGCACGGAGTCACCTAGTGCAG”, the binding signal is 8080 fluorescence intensity (a.u.). Under “CGAGAACGTTAATTGTCATAGCATCGCCCAGCTTTTTTTCCGGAGTCACCTAGTGCAG” stands 8280 fluorescence intensity (a.u.); under “ACCTCTCCGGTCATAAGTGCATGTCGTTTGATTTCGTTTCCGGAGTCACCTAGTGCAG”, 11900 fluorescence intensity (a.u.); under “CGCCCGCAACCACCCGTCCGCATCCGTCGCCTCACGCCTTCGGAGTCACCTAGTGCAG”, 12600 fluorescence intensity (a.u.). Under “TTTATCTCTACTTTCCAACTCATCTCCTCCGTTTTCCGCGCGGAGTCACCTAGTGCAG” stands 8130 fluorescence intensity (a.u.); under “ACCTTCGGTGTACTTTTTCCTTAGTCTGCCGGCTTATTTACGGAGTCACCTAGTGCAG”, 9490 fluorescence intensity (a.u.); under “TTCTTTTCTTTTTTTCTTTGCGGGGATTTCATATAGGATTCGGAGTCACCTAGTGCAG”, 8510 fluorescence intensity (a.u.).

“ACTTTCGGTCTAATCCTGACACATGCACCATGTACATCTGCGGAGTCACCTAGTGCAG”: the binding signal is 8080 fluorescence intensity (a.u.). As for “GGCTCACCTGCATTGTCTACTACGTCGTGTTCGCGCAGACCGGAGTCACCTAGTGCAG”, the binding signal is 10200 fluorescence intensity (a.u.). Under “GCCGCCGTAGTTTTCTAAGCTTCAGCCTTTTATTTTGCTTCGGAGTCACCTAGTGCAG” stands 9520 fluorescence intensity (a.u.). Consider “TCTAAACTGGTTTATTATCACCCGTCACGGATAACTATTACGGAGTCACCTAGTGCAG”, for which the binding signal is 8850 fluorescence intensity (a.u.). Under “TCTGTGTTGGCGAGAGTTGGTGTCTGGAATTGGGCTTGGTCGGAGTCACCTAGTGCAG” stands 9200 fluorescence intensity (a.u.).

With “TTCTTGCCGGAGGAGGGGCAGGGGAGGGAGCCGGGCGGGACGGAGTCACCTAGTGCAG”, the binding signal was 23500 fluorescence intensity (a.u.). As for “GGGATGGGTAGGGGTGGGTTGTGCTGTATTATACTACACCCGGAGTCACCTAGTGCAG”, the binding signal was 19200 fluorescence intensity (a.u.). Regarding “CACACAACTCATGTCTATCAATCATTGCATCCCAACTTGCCGGAGTCACCTAGTGCAG”, the binding signal was 8480 fluorescence intensity (a.u.). With “GCCATTGTACCCCACCCTTCTCTCGATTGCTCTTCCCCTGCGGAGTCACCTAGTGCAG”, the binding signal was 8380 fluorescence intensity (a.u.). As to “AGTGGCGGGTTTTACAACTTCGGTGTGCATGCATAAATCTCGGAGTCACCTAGTGCAG”, the binding signal is 12300 fluorescence intensity (a.u.). On to “ATTTTCTTTGAATGCCTCTTAGCCCATTTAGTTTGGTCCACGGAGTCACCTAGTGCAG”, for which the binding signal is 8920 fluorescence intensity (a.u.). Consider “CCTCCTCATTCGCGATCTCTCTCTCTCTCTTTCTTTCGTCCGGAGTCACCTAGTGCAG”, for which the binding signal is 8090 fluorescence intensity (a.u.). With “TTCGGGCCCCTGAATTGTTAGGTAATAACCCTACATCCTGCGGAGTCACCTAGTGCAG”, the binding signal was 13500 fluorescence intensity (a.u.).

On to “TCCCCTTCAGACATCTTCCCCATCCTCGCCTGCTTCAGTCCGGAGTCACCTAGTGCAG”, for which the binding signal is 8160 fluorescence intensity (a.u.). Under “GGTGGGTTGGGCCGTGATTTGTATGGACTTTATTTGTAAGCGGAGTCACCTAGTGCAG” stands 19000 fluorescence intensity (a.u.); under “CAGTACTGCAGATAATCTCCACTGACCTTCGTACATATTACGGAGTCACCTAGTGCAG”, 8180 fluorescence intensity (a.u.); under “TGCATAGTCACACGACCGACGGGAAGCTTTTTTATATTATCGGAGTCACCTAGTGCAG”, 8240 fluorescence intensity (a.u.). Under “TCTTCAGTTGCTTATTTTCGATATTGTTAACCGGACTTCACGGAGTCACCTAGTGCAG” stands 13300 fluorescence intensity (a.u.); under “CTCATCTCTGGAAATTTCAGATCTGCGCGGTAAAATCAATCGGAGTCACCTAGTGCAG”, 10600 fluorescence intensity (a.u.); under “ATCGCCGCCGCCTCCAGGACCACGTCTTCGTCCTCGAGGACGGAGTCACCTAGTGCAG”, 8660 fluorescence intensity (a.u.).

In the case of “AACCCCACTTTTATTCACTTAGATGGTCCCATATGTCATCCGGAGTCACCTAGTGCAG”, the binding signal is 8670 fluorescence intensity (a.u.).
